No constants are given. Whether binding was seen depends on the method and setting. Some results given as binding are weak or reduced against the parent protein; the word gives no strength. Where a sequence is shown, tags or fusion partners need not be part of it.
Legend:
[1] = molecular target: T1, human IL-2Rβ (CD122 protein, Fc Tag) (27-239) (human) (UniProt P14784); assay: competition phage ELISA; competitor phage clone SEQ ID NO 170; + = peptide competes with phage binding
T1 sequence (looked up): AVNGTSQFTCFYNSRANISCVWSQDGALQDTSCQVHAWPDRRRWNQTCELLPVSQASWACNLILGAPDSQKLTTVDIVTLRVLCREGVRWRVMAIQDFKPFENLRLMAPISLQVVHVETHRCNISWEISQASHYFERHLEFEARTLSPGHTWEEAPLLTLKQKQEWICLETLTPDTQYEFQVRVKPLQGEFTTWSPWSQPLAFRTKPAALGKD

[2] = molecular target: T1, human IL-2Rβ (CD122 protein, Fc Tag) (27-239) (human); assay: competition phage ELISA; competitor phage clone SEQ ID NO 1034; + = peptide competes with phage binding
[3] = molecular target: T1, human IL-2Rβ (CD122 protein, Fc Tag) (27-239) (human); assay: competition phage ELISA; competitor phage clone SEQ ID NO 58; + = peptide competes with phage binding
[4] = molecular target: T1, human IL-2Rβ (CD122 protein, Fc Tag) (27-239) (human); assay: competition phage ELISA; competitor phage clone SEQ ID NO 83; + = peptide competes with phage binding
[5] = molecular target: T2, human IL-2Rγc (CD132 protein, Fc Tag) (23-254) (human) (UniProt P31785); assay: competition phage ELISA; competitor phage clone SEQ ID NO 198; + = peptide competes with phage binding
T2 sequence (looked up): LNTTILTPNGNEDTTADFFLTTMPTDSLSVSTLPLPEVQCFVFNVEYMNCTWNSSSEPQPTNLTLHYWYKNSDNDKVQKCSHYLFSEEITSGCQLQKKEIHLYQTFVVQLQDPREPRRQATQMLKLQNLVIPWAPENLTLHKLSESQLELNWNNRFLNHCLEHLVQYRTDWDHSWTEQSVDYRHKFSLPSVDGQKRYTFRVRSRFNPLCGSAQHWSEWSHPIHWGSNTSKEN

[6] = molecular target: T2, human IL-2Rγc (CD132 protein, Fc Tag) (23-254) (human); assay: competition phage ELISA; competitor phage clone SEQ ID NO 224; + = peptide competes with phage binding
[7] = molecular target: T2, human IL-2Rγc (CD132 protein, Fc Tag) (23-254) (human); assay: competition phage ELISA; competitor phage clone SEQ ID NO 266; + = peptide competes with phage binding
[8] = molecular target: T2, human IL-2Rγc (CD132 protein, Fc Tag) (23-254) (human); assay: competition phage ELISA; competitor phage clone SEQ ID NO 236; + = peptide competes with phage binding
[9] = molecular target: T2, human IL-2Rγc (CD132 protein, Fc Tag) (23-254) (human); assay: competition phage ELISA; competitor phage clone SEQ ID NO 248; + = peptide competes with phage binding
[10] = molecular target: T2, human IL-2Rγc (CD132 protein, Fc Tag) (23-254) (human); assay: competition phage ELISA; competitor phage clone SEQ ID NO 948; + = peptide competes with phage binding

Measured: binding

RWGDVGDLLMPL [IL-2Rβ ligand labelled SEQ ID NO: 1042 in Table 7 (synthetic peptide)]
binds: [1] | [2] | [3] | [4]

RTCTEWENVVLCWV [IL-2Rγc ligand SEQ ID NO: 202 (synthetic peptide)]
binds: [5] | [6] | [7] | [8] | [9]

DCSMWEGVELCW [IL-2Rγc ligand SEQ ID NO: 224 (synthetic peptide)]
binds: [5] | [6] | [7] | [8] | [9]

MCWLEWGEWVGSCL [IL-2Rγc ligand SEQ ID NO: 236 (synthetic peptide)]
binds: [5] | [6] | [7] | [8] | [9]

DLSDLSTFWLSQ [Modified ligand having amino acid SEQ ID NO: 248 (synthetic peptide)]
binds: [5] | [6] | [7] | [8] | [9]

SLLKCYNASTCASVF [IL-2Rγc ligand SEQ ID NO: 948 (synthetic peptide)]
binds: [10]
